A short description of the first data set: Odour description of the neat compound.
Conditions: not given
Turning to `C=C/C=C/C=C/CCC(O)CC` (centres unmarked) [Example 7, (6E,8E)-undeca-6,8,10-trien-3-ol], the Odour description result is “green, Undecatriene-like, floral, fruity, woody, leather”.
On to `C=C/C=C/C=C/CCCC(C)O` (centres unmarked) [Example 6, (6E,8E)-undeca-6,8,10-trien-2-ol], for which the Odour description result is “Undecatriene-like, fatty, green, fruity, metallic”.
Turning to `C=C/C=C/C=C/C(O)CCCC` (centres unmarked) [Example 2, (6E,8E)-undeca-6,8,10-trien-5-ol], the Odour description result was “green, floral, metallic”.
Still for that read-out and setting: the value for “(5E,7E,9E)-undeca-5,7,9-trien-4-ol and (5E,7E,9Z)-undeca-5,7,9-trien-4-ol [Example 4]” was “fruity, fatty, floral”.
As for `C=CC(O)/C=C/C=C/CCCC` (centres unmarked) [Example 8, (4E,6E)-undeca-1,4,6-trien-3-ol], the Odour description entry was “green, fruity, smoked, ethery”.
On the same count and under the same terms, for “(5E,7E,9E)-undeca-5,7,9-trien-4-one and (5E,7E,9Z)-undeca-5,7,9-trien-4-one [Example 3]” the value was “citrus, fresh, aldehydic, allylic, metallic, fruity”; for `C=CCC(O)/C=C/C=C/CCCC` (centres unmarked) [Example 10, (5E,7E)-dodeca-1,5,7-trien-4-ol], “fatty, fruity, floral, animalic, green, allylic”; for `C=C/C=C/C=C/C(=O)CCCC` [Example 1, (6E,8E)-undeca-6,8,10-trien-5-one], “floral, green, metallic”.
On the same count and under the same terms, the value for `CC=CC(O)/C=C/C=C/CCCC` (centres unmarked) [Example 9, (5E,7E)-dodeca-2,5,7-trien-4-ol] was “fruity, fatty, floral, allylic, metallic”.

The data set is the same for the next values; noted with them: dry down notes.
In the case of “(6Z,8E)-undeca-6,8,10-trien-5-ol and (6E,8E)-undeca-6,8,10-trien-5-ol [Example 5]”, the “Odour description: Dry down notes” value is “more Galbanone-like than Undecatriene-like, Cetone V aspect”.

The same data set, now with this note: top notes.
With “(6Z,8E)-undeca-6,8,10-trien-5-ol and (6E,8E)-undeca-6,8,10-trien-5-ol [Example 5]”, the “Odour description: Top notes” value was “green, violet, pineapple, Undecavertol, Folione”.

Source of the values: patent publication US20100191019A1, “Organic Compounds” (priority 2007, published 2010).
